From US20140120109A1
Residue numbers refer to the chain shown, from its start. Results are given in words; binding and its absence hold for the method and conditions named. Some binding calls cover weakened binding; strength is not graded here. For some of these results: Tags and fused reporters may be left off the sequences shown. One block for each binder: values may come before it.

Amino acid sequences for entries named in this document (tags omitted). A change or cut given only in a name is not applied to a line headed by its entry.
UniProt O95150: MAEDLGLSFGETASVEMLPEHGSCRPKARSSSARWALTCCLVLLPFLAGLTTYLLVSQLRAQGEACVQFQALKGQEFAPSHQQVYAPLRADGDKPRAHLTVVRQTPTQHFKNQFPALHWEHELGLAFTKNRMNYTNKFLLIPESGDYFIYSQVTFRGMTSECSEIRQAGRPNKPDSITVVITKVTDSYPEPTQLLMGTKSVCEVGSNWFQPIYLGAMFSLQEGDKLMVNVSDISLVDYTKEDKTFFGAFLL
UniProt Q8K3Y7: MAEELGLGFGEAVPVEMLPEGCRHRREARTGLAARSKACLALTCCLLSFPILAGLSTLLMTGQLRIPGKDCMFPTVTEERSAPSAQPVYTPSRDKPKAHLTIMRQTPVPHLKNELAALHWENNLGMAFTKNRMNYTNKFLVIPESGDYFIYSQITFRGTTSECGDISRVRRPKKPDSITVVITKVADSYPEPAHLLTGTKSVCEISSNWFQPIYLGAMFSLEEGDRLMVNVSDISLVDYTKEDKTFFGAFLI

Experiments:
[1] = molecular target: T1, cynomolgus monkey TL1A, soluble, CHO-expressed, residues 72-251 of SEQ ID NO:248 with N-terminal His6-tag (cynomolgus monkey (Macaca fascicularis)); test: SPR; SPR, statement in words, no number
T1 sequence: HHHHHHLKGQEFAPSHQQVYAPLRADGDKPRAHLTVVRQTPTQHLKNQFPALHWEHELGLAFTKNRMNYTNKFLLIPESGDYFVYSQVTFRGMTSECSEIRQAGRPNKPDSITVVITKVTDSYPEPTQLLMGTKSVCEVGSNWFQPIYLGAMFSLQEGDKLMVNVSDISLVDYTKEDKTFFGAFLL

[2] = molecular target: human TL1A, soluble, CHO-expressed, residues 72-251 of SEQ ID NO:244 with N-terminal His6-tag (human) (UniProt O95150); test: SPR
[3] = molecular target: T1, cynomolgus monkey TL1A, soluble, CHO-expressed, residues 72-251 of SEQ ID NO:248 with N-terminal His6-tag (cynomolgus monkey (Macaca fascicularis)); test: SPR
[4] = molecular target: rat TL1A, soluble, CHO-expressed, residues 76-252 of SEQ ID NO:258 with N-terminal His6-tag (rat) (UniProt Q8K3Y7); test: SPR

binding [1]: binds
binding [2]: binds
B1: H4H1750P (antibody, human IgG4 S228P, V domains shown)
VH: QVQLVESGGGVVQPGRSLRLSCVASGFTFSNYGMHWVRQAPGKGLEWVAVISYDGNNDLYSDSVKGRFTISRDNAKNALSLQMTSLRAEDTAVYYCARDSTMTPYYYHGIDVWGQGTTVTVSA
VL: DIQMTQSPSSLSASVGDRVTITCRASQDIRNDLGWYQQKPGKAPKRLIYAASSLQSGVPSRFSGSGSGTDFTLTISSLQPEDFATYYCLQHNSYPPTFGQGTKVEIK

binding [3]: binds
binding [2]: binds
binding [4]: binds
B2: H4H1719P (antibody, human IgG4 S228P, V domains shown)
VH: EVQLVESGGGLVQPGRSLRLSCVASGFTFQDYAMHWVRQAPGKGLEWVSGINWISDDMGYADSVMGRFTISRDNAKNSLYLQMDSLRAEDTALYYCAKDKGLRFLDYVMDVWGQGTTVTVSA
VL: DIVMTQSPLSLPVTPGEPASISCRSTQSLLHRNGHNYLHWYLHKPGQSPQLLIHLGSNRASGVPDRFSGSGSGTDFTLKISRVEAEDVGVYYCMQALQTPYTFGQGTKLEIK

binding [3]: binds
binding [2]: binds
B3: H4H1738P (antibody, human IgG4 S228P, V domains shown)
VH: EVQLVESGGALVKPGGSLRLSCAVSGFTFINDWMNWVRQAPGKGLEWVGRIKSTTDGGTTDDAAPVKGRFTISRDDSKNTLYLQMNSLKTEDTAVYYCTRDRNRQRNYFYDGMDVWGQGTTVTVSA
VL: B2 VL with L9V, T26S, S28R, R32N, H35N, H39D, H43Q, H54Y, I80V
